No constants are given. Whether binding was seen depends on the method and setting.
Target: T1, glycogen synthase kinase 2 (GSK2) (rice (Oryza sativa L.)) (UniProt Q60EZ2)
T1 sequence: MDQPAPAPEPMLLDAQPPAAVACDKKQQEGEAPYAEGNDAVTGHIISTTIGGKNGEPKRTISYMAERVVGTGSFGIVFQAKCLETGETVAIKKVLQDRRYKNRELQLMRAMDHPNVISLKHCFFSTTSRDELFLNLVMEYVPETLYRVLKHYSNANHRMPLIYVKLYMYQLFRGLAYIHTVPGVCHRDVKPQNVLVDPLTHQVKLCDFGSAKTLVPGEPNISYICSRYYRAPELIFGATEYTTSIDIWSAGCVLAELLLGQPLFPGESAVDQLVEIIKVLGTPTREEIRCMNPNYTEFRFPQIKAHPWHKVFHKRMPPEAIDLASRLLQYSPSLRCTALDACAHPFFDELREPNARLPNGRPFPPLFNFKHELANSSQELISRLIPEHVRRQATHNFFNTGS
Assay: two-hybrid; yeast strain AH109; bait pGBKT7-GSK2, prey ABIL1 or ABIL2 in pGADT7; selection on SD-Trp/-Leu/-His medium

binding: no binding
Substance: ABI-LIKE 2 (ABIL2) (rice (Oryza sativa L.))

Source: paper PMC6801706
